MIC data for 1 compound are collected here from paper PMC4524557 (RSC advances, 2015).

The assay concerns Escherichia coli ATCC 25922. The assay is described as follows: MIC determination. Particulars: ATCC25922, read-out: MIC EC. Type of assay: cell-based.

Structures are written as SMILES. Some results are limits rather than exact numbers.

By MIC is commonly meant the least concentration at which growth counts as inhibited. Take `CN[C@H](CC(C)C)C(=O)N[C@H]1C(=O)N[C@@H](CC(N)=O)C(=O)N[C@H]2C(=O)N[C@H]3C(=O)N[C@H](C(=O)N[C@H](C(=O)O)c4cc(O)cc(O)c4-c4cc3ccc4O)[C@H](O)c3ccc(c(Cl)c3)Oc3cc2cc(c3O[C@@H]2O[C@H](CO)[C@@H](O)[C@H](O)[C@H]2O[C@H]2C[C@](C)(N)[C@H](O)[C@H](C)O2)Oc2ccc(cc2Cl)[C@H]1O` [Vancomycin]: the MIC is > 25 µM.
